Results deposited as PubChem BioAssay AID686943 (Drosophila RNAi Screening Center, 2013)

- Purpose: 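Fly genes whose loss alters ERK activation after insulin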 (primary screen)
- Cell system: Drosophila S2R+ haemocyte-like cells expressing YFP-tagged ERK (Rolled)
- Reagents: long dsRNA against Drosophila genes
- Treatment: insulin stimulation versus unstimulated cells; dose and duration not given
- Measured: 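Per-plate z-scores of phospho-ERK immunostaining normalised to YFP-tagged ERK, measured with and without insulin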
- Reading the numbers: replicate 1, z-score of dpERK with insulin and replicate 2, z-score of dpERK with insulin: higher = more active ERK per ERK-YFP after insulin
The deposit covers about 23,000 reagents; below is an unselected part of those that have a named target and a result. 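Extra replicates exist only for a retested subset of genes; insulin dose and duration not given; both raised and lowered dpERK matter.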 The numbers tell different reagents against one gene apart. Names joined by + are all predicted targets of the reagent. Further read-outs or replicates are left out here. No sequences are given here. The record does not give: the amount of reagent, the time to read-out.

Gr94a → replicate 1, z-score of dpERK with insulin: 2.26; replicate 2, z-score of dpERK with insulin: 0.34
axed #1 → replicate 1, z-score of dpERK with insulin: -0.34; replicate 2, z-score of dpERK with insulin: 0.2
axed #2 → replicate 1, z-score of dpERK with insulin: 0.02; replicate 2, z-score of dpERK with insulin: 0.29
CG10366 → replicate 1, z-score of dpERK with insulin: 0.41; replicate 2, z-score of dpERK with insulin: 0.48
CG9132 → replicate 1, z-score of dpERK with insulin: 0.02; replicate 2, z-score of dpERK with insulin: -1.61
Cpr51A → replicate 1, z-score of dpERK with insulin: 0.37; replicate 2, z-score of dpERK with insulin: 0.77
Hsc70-4 → replicate 1, z-score of dpERK with insulin: -0.37; replicate 2, z-score of dpERK with insulin: -1.07
CG4598 → replicate 1, z-score of dpERK with insulin: -0.66; replicate 2, z-score of dpERK with insulin: -0.2
Rap1 → replicate 1, z-score of dpERK with insulin: -1.29; replicate 2, z-score of dpERK with insulin: -0.69
NimC1 → replicate 1, z-score of dpERK with insulin: -0.2; replicate 2, z-score of dpERK with insulin: -0.06
Oatp58Db → replicate 1, z-score of dpERK with insulin: 0.33; replicate 2, z-score of dpERK with insulin: -0.6
CG42307 + mus312 → replicate 1, z-score of dpERK with insulin: 0.73; replicate 2, z-score of dpERK with insulin: -0.09
CG30375 → replicate 1, z-score of dpERK with insulin: 0; replicate 2, z-score of dpERK with insulin: -0.64
frtz → replicate 1, z-score of dpERK with insulin: -0.47; replicate 2, z-score of dpERK with insulin: -0.37
CG14448 → replicate 1, z-score of dpERK with insulin: -1.15; replicate 2, z-score of dpERK with insulin: -0.65
roh → replicate 1, z-score of dpERK with insulin: -0.2; replicate 2, z-score of dpERK with insulin: -2.2
Cpr65Ay → replicate 1, z-score of dpERK with insulin: 1.08; replicate 2, z-score of dpERK with insulin: 0.52
CG5674 → replicate 1, z-score of dpERK with insulin: -2.26; replicate 2, z-score of dpERK with insulin: -2.31
CG31937 → replicate 1, z-score of dpERK with insulin: -0.58; replicate 2, z-score of dpERK with insulin: -0.49

Continued; the last 3 above are carried over.
Cpr65Ay → replicate 1, z-score of dpERK with insulin: 1.08; replicate 2, z-score of dpERK with insulin: 0.52
CG5674 → replicate 1, z-score of dpERK with insulin: -2.26; replicate 2, z-score of dpERK with insulin: -2.31
CG31937 → replicate 1, z-score of dpERK with insulin: -0.58; replicate 2, z-score of dpERK with insulin: -0.49
CG2794 → replicate 1, z-score of dpERK with insulin: -0.32; replicate 2, z-score of dpERK with insulin: -0.57
CG7407 → replicate 1, z-score of dpERK with insulin: 0.06; replicate 2, z-score of dpERK with insulin: 0.12
CG43062 → replicate 1, z-score of dpERK with insulin: 0.13; replicate 2, z-score of dpERK with insulin: 0.19
run #1 → replicate 1, z-score of dpERK with insulin: -0.09; replicate 2, z-score of dpERK with insulin: 0.27
run #2 → replicate 1, z-score of dpERK with insulin: 0.28; replicate 2, z-score of dpERK with insulin: 0.51
Gem2 → replicate 1, z-score of dpERK with insulin: 0.01; replicate 2, z-score of dpERK with insulin: -0.07
AstC-R1 → replicate 1, z-score of dpERK with insulin: 0.28; replicate 2, z-score of dpERK with insulin: 0.03
Tsp42Ei → replicate 1, z-score of dpERK with insulin: 0.22; replicate 2, z-score of dpERK with insulin: -0.68
REG → replicate 1, z-score of dpERK with insulin: -0.73; replicate 2, z-score of dpERK with insulin: -0.46
Drep3 #1 → replicate 1, z-score of dpERK with insulin: -1.53; replicate 2, z-score of dpERK with insulin: 1.3
Drep3 #2 → replicate 1, z-score of dpERK with insulin: -1.26; replicate 2, z-score of dpERK with insulin: -0.15
Drep3 #3 → replicate 1, z-score of dpERK with insulin: 0.49; replicate 2, z-score of dpERK with insulin: 0.02
hbs → replicate 1, z-score of dpERK with insulin: 0.83; replicate 2, z-score of dpERK with insulin: 0.04
spel1 → replicate 1, z-score of dpERK with insulin: -0.52; replicate 2, z-score of dpERK with insulin: -0.2
S-Lap3 → replicate 1, z-score of dpERK with insulin: 0.52; replicate 2, z-score of dpERK with insulin: 0.55
HDAC1 → replicate 1, z-score of dpERK with insulin: -1.43; replicate 2, z-score of dpERK with insulin: -0.61
CG13558 → replicate 1, z-score of dpERK with insulin: -0.3; replicate 2, z-score of dpERK with insulin: 0.13
Gr59f → replicate 1, z-score of dpERK with insulin: -0.21; replicate 2, z-score of dpERK with insulin: 0.02
UQCR-11L → replicate 1, z-score of dpERK with insulin: 0.07; replicate 2, z-score of dpERK with insulin: 0.96
Coop → replicate 1, z-score of dpERK with insulin: 0.05; replicate 2, z-score of dpERK with insulin: 0.97
SerT → replicate 1, z-score of dpERK with insulin: -1.74; replicate 2, z-score of dpERK with insulin: -2.51
